PubChem BioAssay AID1224829 – NIAID – 2016
Purpose: 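Follow-up of TLR4-NF-kappaB regulators using six separate siRNAs for each gene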 (follow-up of hits). Cell system: mouse RAW264.7 G9 macrophage reporter cells. Reagent: single siRNA against mouse genes, 100 nM. Time to read-out: 2 days of siRNA knock-down, then 40 min of LPS before fixing. Treatment: LPS (Salmonella minnesota R595) at 10 ng/ml. Detection: 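Imaging of GFP-p65 after 40 min of LPS; nuclear over perinuclear ring intensity ratio, scaled to plate median and non-targeting control wells, given as z-score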. Scale: p65 translocation z-score and gene median z-score, per vendor: higher = more nuclear NF-kappaB p65 after LPS. Active means: 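Active means the replicate-mean z-score lies beyond plus or minus 2, in either direction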. Meaning of the calls: active = changed p65 translocation (either direction); inactive = no clear change.
This is one part, drawn at random, of about 3,800 reagents tested. 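Calls cover raised and lowered translocation; gene median uses one vendor's three siRNAs; qiagen siRNAs acted more weakly than ambion siRNAs.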 Entries without a mark were called inactive.

| Target gene | PubChem SID | siRNA vendor or control pool | p65 translocation z-score, replicate mean | p65 translocation z-score, replicate 1 | p65 translocation z-score, replicate 2 | gene median z-score, per vendor |
| --- | --- | --- | --- | --- | --- | --- |
| Akr1b7 (GeneID 11997) | SID315483807 | ambion single siRNA | 0.688 | 0.988 | 0.388 | -0.0327 |
| Akr1b7 (GeneID 11997) | SID315483808 | ambion single siRNA | 0.319 | 1.09 | -0.454 | -0.0327 |
| Akr1b7 (GeneID 11997) | SID315483809 | ambion single siRNA | -2.42 (active) | -2.68 | -2.15 | -0.0327 |
| Akr1b7 (GeneID 11997) | SID315483810 | qiagen single siRNA | -0.0201 | -0.149 | 0.109 | -0.26 |
| Akr1b7 (GeneID 11997) | SID315483811 | qiagen single siRNA | 0.0621 | -0.371 | 0.495 | -0.26 |
| Akr1b7 (GeneID 11997) | SID315483812 | qiagen single siRNA | -2.42 (active) | -1.55 | -3.29 | -0.26 |
| Il17re (GeneID 57890) | SID315486141 | ambion single siRNA | 0.224 | -0.234 | 0.681 | -0.443 |
| Il17re (GeneID 57890) | SID315486142 | ambion single siRNA | -0.06 | 0.532 | -0.653 | -0.443 |
| Il17re (GeneID 57890) | SID315486143 | ambion single siRNA | -5.15 (active) | -4.93 | -5.37 | -0.443 |
| Il17re (GeneID 57890) | SID315486144 | qiagen single siRNA | 0.119 | 0.119 | – | 0.119 |
| Il17re (GeneID 57890) | SID315486145 | qiagen single siRNA | 1.63 | 1.4 | 1.86 | 0.119 |
| Il17re (GeneID 57890) | SID315486146 | qiagen single siRNA | -4.37 (active) | -4.75 | -4 | 0.119 |
| Or10q12 (GeneID 258341) | SID315488604 | ambion single siRNA | 0.806 | -0.261 | 1.87 | -0.763 |
| Or10q12 (GeneID 258341) | SID315488605 | ambion single siRNA | -1.95 | -2.66 | -1.23 | -0.763 |
| Or10q12 (GeneID 258341) | SID315488606 | ambion single siRNA | -1.36 | -2.43 | -0.3 | -0.763 |
| Or10q12 (GeneID 258341) | SID315488607 | qiagen single siRNA | 0.194 | -0.601 | 0.989 | 0.031 |
| Or10q12 (GeneID 258341) | SID315488608 | qiagen single siRNA | 0.531 | 0.354 | 0.708 | 0.031 |
| Or10q12 (GeneID 258341) | SID315488609 | qiagen single siRNA | -0.757 | -0.292 | -1.22 | 0.031 |
| Snrnp35 (GeneID 76167) | SID315486834 | ambion single siRNA | -1.97 | -1.62 | -2.32 | -0.469 |
| Snrnp35 (GeneID 76167) | SID315486835 | ambion single siRNA | 1.87 | 3.07 | 0.679 | -0.469 |
| Snrnp35 (GeneID 76167) | SID315486836 | ambion single siRNA | – | – | – | -0.469 |
| Snrnp35 (GeneID 76167) | SID315486837 | qiagen single siRNA | -0.708 | -1.72 | 0.301 | -0.142 |
| Snrnp35 (GeneID 76167) | SID315486838 | qiagen single siRNA | -1.24 | -1.24 | – | -0.142 |
| Snrnp35 (GeneID 76167) | SID315486839 | qiagen single siRNA | 0.236 | -0.142 | 0.615 | -0.142 |

Quoted from the listing for reference:
| Target gene | PubChem SID | siRNA vendor or control pool | p65 translocation z-score, replicate mean | p65 translocation z-score, replicate 1 | p65 translocation z-score, replicate 2 | gene median z-score, per vendor |
| --- | --- | --- | --- | --- | --- | --- |
| Akr1b7 (GeneID 11997) | SID315483809 | ambion single siRNA | -2.42 (active) | -2.68 | -2.15 | -0.0327 |
| Akr1b7 (GeneID 11997) | SID315483810 | qiagen single siRNA | -0.0201 | -0.149 | 0.109 | -0.26 |
| Akr1b7 (GeneID 11997) | SID315483811 | qiagen single siRNA | 0.0621 | -0.371 | 0.495 | -0.26 |
| Akr1b7 (GeneID 11997) | SID315483812 | qiagen single siRNA | -2.42 (active) | -1.55 | -3.29 | -0.26 |
